Results reported in the supplement of paper PMC10849652.
The other results are listed elsewhere or left out. Residues, ends and D or L forms follow the SMILES beside them. *: point of attachment. Cbz = O=C(OCc1ccccc1)*

The chains behind the UniProt entries cited, without tags or fusion partners. Where a name states a change or a piece, a line headed by the entry shows the natural chain unless it says otherwise.
UniProt Q13177, whole entry, looked up: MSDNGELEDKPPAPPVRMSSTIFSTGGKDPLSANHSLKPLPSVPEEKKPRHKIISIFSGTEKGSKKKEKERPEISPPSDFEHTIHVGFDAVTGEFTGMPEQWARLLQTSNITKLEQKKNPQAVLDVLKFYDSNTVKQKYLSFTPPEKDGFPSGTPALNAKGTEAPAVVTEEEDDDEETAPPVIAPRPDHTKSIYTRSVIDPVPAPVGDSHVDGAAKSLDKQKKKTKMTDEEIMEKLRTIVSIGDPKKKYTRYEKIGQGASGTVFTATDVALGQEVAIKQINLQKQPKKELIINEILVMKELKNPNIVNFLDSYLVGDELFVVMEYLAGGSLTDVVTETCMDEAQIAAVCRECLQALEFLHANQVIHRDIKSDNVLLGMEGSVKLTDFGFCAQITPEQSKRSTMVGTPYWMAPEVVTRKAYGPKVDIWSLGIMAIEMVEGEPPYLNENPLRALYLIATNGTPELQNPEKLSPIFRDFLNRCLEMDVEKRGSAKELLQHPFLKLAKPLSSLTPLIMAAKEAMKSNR
UniProt O00330, whole entry, looked up: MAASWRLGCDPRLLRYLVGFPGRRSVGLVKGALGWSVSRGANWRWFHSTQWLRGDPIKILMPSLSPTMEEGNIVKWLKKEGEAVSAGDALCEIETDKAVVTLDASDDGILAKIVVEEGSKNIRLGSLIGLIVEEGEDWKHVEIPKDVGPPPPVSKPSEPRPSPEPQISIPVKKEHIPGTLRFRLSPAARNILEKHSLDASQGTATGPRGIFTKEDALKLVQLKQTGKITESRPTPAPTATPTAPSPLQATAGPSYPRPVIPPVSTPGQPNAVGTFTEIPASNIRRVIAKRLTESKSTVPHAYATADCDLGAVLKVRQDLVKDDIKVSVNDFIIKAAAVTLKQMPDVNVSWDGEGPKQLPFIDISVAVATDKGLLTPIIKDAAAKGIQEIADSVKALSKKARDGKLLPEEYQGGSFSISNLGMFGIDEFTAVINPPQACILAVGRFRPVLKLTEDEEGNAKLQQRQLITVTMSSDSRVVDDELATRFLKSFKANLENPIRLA
UniProt Q9NP74: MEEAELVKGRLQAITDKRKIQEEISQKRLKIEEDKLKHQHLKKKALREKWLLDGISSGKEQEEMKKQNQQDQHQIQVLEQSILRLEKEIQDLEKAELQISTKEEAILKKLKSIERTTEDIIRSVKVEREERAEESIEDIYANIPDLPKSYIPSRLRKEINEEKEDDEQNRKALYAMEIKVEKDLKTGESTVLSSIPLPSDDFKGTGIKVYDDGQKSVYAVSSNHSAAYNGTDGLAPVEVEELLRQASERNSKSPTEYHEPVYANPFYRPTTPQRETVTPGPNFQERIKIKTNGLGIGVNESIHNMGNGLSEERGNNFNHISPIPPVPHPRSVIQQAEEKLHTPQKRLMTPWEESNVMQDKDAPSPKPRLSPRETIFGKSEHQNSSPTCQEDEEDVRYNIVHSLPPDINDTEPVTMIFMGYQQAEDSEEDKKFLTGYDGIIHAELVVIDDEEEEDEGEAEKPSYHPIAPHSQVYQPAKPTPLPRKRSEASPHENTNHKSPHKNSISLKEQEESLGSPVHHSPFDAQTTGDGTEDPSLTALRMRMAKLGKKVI
UniProt P22061: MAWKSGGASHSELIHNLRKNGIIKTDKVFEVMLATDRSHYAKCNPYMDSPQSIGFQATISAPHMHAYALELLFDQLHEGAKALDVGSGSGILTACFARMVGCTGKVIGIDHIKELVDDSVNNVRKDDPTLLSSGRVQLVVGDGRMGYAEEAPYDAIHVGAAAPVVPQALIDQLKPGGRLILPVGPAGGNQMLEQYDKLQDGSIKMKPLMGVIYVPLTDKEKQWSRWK
UniProt Q9NUG6, whole entry, looked up: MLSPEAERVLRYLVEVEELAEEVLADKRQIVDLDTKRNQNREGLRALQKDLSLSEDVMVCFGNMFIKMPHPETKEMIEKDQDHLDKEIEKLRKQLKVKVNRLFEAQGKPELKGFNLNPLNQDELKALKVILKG
UniProt O14737: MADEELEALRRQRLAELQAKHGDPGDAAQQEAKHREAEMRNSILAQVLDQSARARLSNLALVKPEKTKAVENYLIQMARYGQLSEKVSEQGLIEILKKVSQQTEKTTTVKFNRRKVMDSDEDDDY
UniProt Q8NBM8: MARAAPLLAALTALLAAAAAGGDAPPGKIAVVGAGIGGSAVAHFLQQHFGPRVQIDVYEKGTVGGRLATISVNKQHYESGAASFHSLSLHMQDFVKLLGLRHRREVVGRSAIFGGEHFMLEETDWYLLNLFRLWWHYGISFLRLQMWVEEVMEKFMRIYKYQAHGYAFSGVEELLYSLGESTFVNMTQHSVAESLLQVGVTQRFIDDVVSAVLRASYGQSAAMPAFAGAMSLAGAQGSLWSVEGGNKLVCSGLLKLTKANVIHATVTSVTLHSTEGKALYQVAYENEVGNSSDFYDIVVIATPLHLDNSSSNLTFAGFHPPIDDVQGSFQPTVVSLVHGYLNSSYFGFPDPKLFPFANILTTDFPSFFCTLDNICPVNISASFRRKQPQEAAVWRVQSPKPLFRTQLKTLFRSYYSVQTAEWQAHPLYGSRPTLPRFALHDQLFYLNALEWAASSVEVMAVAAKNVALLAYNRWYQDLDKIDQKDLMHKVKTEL
UniProt P05165: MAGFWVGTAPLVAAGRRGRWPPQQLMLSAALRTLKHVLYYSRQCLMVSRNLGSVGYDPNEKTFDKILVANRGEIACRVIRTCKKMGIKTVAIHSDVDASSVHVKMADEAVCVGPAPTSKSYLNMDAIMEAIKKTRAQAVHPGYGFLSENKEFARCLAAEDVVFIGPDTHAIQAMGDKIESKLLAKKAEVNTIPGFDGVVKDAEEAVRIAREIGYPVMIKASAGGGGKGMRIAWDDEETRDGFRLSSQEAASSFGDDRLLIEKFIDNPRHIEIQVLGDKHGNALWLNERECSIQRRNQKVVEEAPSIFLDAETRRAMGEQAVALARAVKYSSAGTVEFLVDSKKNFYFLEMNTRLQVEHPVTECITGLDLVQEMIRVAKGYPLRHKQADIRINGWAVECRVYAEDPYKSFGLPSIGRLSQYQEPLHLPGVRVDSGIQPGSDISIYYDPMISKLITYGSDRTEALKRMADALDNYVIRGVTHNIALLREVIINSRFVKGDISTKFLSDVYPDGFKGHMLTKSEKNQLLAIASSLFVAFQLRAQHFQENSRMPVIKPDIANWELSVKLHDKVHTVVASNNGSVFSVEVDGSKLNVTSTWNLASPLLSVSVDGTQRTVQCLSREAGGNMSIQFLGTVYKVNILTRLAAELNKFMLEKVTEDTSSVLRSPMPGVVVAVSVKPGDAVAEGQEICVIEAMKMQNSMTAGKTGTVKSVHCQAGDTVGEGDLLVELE
UniProt O00623: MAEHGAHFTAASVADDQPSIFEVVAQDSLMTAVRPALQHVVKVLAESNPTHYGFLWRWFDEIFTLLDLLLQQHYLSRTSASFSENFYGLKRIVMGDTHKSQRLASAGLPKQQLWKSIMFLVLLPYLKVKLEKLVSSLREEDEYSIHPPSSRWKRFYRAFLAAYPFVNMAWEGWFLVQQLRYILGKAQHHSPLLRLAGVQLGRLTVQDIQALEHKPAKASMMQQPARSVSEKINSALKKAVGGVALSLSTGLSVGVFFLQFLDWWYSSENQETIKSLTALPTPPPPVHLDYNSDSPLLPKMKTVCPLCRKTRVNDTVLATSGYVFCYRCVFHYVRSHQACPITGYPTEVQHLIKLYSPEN
UniProt Q99447: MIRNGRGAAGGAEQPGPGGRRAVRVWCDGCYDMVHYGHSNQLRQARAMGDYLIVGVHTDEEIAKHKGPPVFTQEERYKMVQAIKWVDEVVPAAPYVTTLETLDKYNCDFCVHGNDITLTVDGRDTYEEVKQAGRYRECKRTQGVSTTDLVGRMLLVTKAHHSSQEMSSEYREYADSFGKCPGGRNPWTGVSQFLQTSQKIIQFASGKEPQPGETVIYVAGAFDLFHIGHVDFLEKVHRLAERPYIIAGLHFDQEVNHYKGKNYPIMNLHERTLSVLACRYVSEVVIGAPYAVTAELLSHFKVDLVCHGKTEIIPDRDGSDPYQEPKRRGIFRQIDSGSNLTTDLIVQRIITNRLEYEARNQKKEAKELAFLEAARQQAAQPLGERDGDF
UniProt Q9H4Z3: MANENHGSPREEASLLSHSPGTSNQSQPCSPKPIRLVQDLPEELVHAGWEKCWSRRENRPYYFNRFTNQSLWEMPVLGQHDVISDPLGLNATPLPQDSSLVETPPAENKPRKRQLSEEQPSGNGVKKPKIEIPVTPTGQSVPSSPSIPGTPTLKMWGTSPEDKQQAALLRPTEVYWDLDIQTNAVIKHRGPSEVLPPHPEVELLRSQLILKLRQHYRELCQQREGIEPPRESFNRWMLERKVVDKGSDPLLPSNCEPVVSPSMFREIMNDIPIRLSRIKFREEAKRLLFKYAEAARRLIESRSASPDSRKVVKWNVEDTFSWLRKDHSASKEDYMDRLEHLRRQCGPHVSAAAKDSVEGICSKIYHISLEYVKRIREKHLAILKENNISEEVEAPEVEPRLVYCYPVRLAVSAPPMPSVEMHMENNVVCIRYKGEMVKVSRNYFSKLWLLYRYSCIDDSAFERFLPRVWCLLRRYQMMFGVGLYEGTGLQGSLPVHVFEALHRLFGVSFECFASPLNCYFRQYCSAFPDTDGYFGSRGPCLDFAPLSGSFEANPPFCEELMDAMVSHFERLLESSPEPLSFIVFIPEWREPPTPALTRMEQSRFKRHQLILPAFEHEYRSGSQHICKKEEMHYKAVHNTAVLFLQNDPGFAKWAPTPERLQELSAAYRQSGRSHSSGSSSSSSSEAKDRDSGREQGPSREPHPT
UniProt O00764: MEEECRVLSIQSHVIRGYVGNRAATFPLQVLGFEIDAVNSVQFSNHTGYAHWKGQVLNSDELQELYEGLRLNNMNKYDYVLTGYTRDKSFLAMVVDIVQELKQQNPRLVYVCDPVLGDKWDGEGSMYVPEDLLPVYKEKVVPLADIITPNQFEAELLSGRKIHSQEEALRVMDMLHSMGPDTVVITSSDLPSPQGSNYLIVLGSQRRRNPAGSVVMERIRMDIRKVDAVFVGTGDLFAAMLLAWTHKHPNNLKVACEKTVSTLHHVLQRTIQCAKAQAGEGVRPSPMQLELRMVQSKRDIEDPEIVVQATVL
UniProt Q9H2J4: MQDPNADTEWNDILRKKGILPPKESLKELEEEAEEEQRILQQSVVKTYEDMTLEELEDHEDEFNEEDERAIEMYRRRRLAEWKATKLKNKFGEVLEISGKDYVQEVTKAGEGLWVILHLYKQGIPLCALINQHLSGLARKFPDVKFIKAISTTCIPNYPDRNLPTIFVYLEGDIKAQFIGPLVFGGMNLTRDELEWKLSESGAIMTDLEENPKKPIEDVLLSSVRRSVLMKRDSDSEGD
UniProt Q8NEN9: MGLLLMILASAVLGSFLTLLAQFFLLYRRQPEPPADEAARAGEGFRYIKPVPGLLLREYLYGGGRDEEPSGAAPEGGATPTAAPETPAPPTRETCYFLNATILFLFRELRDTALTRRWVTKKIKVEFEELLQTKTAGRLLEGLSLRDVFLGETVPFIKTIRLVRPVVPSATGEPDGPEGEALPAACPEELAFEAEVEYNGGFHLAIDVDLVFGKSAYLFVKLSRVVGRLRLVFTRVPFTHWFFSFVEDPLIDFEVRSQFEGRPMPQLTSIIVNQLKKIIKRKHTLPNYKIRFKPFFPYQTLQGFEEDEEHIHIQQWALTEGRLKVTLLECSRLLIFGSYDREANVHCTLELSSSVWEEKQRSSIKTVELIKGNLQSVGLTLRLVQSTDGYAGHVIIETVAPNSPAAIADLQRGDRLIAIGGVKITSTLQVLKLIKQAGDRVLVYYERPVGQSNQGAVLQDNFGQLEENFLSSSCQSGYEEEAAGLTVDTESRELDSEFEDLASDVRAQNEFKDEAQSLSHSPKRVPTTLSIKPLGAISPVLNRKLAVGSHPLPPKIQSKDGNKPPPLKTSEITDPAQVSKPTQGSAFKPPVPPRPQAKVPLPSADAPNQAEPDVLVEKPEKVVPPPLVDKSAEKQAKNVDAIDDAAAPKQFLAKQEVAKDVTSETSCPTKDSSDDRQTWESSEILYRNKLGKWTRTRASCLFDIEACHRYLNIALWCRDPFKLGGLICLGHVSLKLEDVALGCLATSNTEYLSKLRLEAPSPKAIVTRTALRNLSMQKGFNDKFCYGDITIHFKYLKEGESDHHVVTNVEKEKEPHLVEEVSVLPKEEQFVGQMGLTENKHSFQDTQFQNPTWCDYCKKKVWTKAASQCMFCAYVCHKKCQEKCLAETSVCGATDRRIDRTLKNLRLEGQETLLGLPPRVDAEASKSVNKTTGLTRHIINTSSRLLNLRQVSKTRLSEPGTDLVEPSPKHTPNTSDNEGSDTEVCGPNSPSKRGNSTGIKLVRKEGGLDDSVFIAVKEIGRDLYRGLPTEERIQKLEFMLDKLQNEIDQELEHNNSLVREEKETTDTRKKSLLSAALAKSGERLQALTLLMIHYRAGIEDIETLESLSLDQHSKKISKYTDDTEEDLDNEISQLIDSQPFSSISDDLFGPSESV
UniProt P0DJ07: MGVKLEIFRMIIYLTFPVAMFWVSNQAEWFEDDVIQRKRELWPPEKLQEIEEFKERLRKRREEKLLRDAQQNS

Tests used:
Assay in all cases: log2 fold change, soluble protein after heating vs DMSO (PISA); higher = thermal stabilisation; K562 cells, 10 uM, 30 min; active = over 0.2 and 3.5 SD of the protein, either way, in both replicates (recomputed)
[1] = compound: C1COCCN1CCN2C3=CC=CC=C3N=C2NC(=O)C4=CC(=CC=C4)[N+](=O)[O-] [IRAK-1-4 Inhibitor I]
In short: (§1)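 Soluble protein was defined as the supernatant after 21,000xg for 90 min. It came from K562 cells at 2×10^6 cells/mL given 10 μM compound for 30 min, heated in aliquots for 3 min across 48°C-58°C, pooled, and extracted in PBS with 0.5% NP-40 at 4°C, and was quantified by TMTpro 16plex LC-MS/MS with equalised channel sums. Thermal stability against control samples, from duplicates, is reported as log2 fold change.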

[2] = compound: C=CC(=O)N1CCC[C@@H](n2nc(-c3ccc(Oc4ccccc4)cc3)c3c(N)ncnc32)C1 [ibrutinib]
In short: as §1

[3] = compound: CC(=O)c1cnc2ccc(-c3cc(Cl)c(O)c(Cl)c3)nc2c1N[C@H]1CC[C@H](CN(C)C)CC1
In short: as §1

[4] = compound: CC(C)(C)Cn1c(N)nc2ccc(-c3[nH]c(C(C)(C)C)nc3-c3ccc(F)cc3)nc21 [ralimetinib]
In short: as §1

[5] = compound: CC(C)(O)CC(=O)NCCn1ccc2ncnc(Nc3ccc(Oc4cccc(C(F)(F)F)c4)c(Cl)c3)c21
In short: as §1

[6] = compound: CC(C)C1=C2N=C(C=C(N2N=C1)NCC3=CC=CC=C3)NCCCCCCN
In short: as §1

[7] = compound: CC(C)C[C@@H](C=O)NC(=O)[C@H](CC(C)C)NC(=O)[C@H](CC(C)C)NC(=O)OCc1ccccc1
In short: as §1

[8] = compound: CC(C)N(C[C@H]1O[C@@H](n2cnc3c(N)ncnc32)[C@H](O)[C@@H]1O)[C@H]1C[C@@H](CCc2nc3cc(C(C)(C)C)ccc3[nH]2)C1 [pinometostat]
In short: as §1

[9] = compound: CC1=C(C(CC(=O)N1)C2=CC=C(C=C2)C(F)(F)F)C(=O)NC3=C(C=C4C(=C3)C=NN4)F
In short: as §1

[10] = compound: CC1=C(C2=C(C=C1)C(=O)C3=CC=CC=C3N2CCCN)C
In short: as §1

Measured: log2 fold change

PAK2 (UniProt Q13177)
inactive: [1] 0.027 | [2] 0.021 | [3] -0.009 | [4] -0.046 | [5] 0.016 | [6] 0.056 | [7] -0.013 | [8] -0.039 | [9] -0.023 | [10] -0.01

PANK4 (UniProt Q9NVE7)
inactive: [1] 0.053 | [2] -0.006 | [3] -0.023 | [4] 0.041 | [5] 0.007 | [6] 0.126 | [7] 0.022 | [8] -0.029 | [9] -0.049 | [10] 0.004

PEX1 (UniProt O43933)
inactive: [1] -0.031 | [2] -0.006 | [3] -0.051 | [4] -0.028 | [5] 0 | [6] -0.001 | [7] -0.006 | [8] -0.007 | [9] -0.016 | [10] 0.014

PDHX (UniProt O00330)
inactive: [1] -0.03 | [2] -0.05 | [3] 0.148 | [4] 0.081 | [5] 0.011 | [6] -0.02 | [7] 0.053 | [8] 0.002 | [9] 0.083 | [10] -0.034

PALMD (UniProt Q9NP74)
inactive: [1] 0.016 | [2] -0.001 | [3] -0.017 | [4] -0.044 | [5] 0.044 | [6] 0.061 | [7] 0.03 | [8] -0.025 | [9] 0.038 | [10] -0.045

PEPD (UniProt P12955)
inactive: [1] 0.026 | [2] 0.07 | [3] -0.008 | [4] -0.04 | [5] -0.01 | [6] 0.01 | [7] -0.022 | [8] -0.009 | [9] 0.022 | [10] 0.041

PDLIM1 (UniProt O00151)
inactive: [1] 0.046 | [2] 0.011 | [3] 0.002 | [4] 0.009 | [5] 0.022 | [6] 0.085 | [7] 0.008 | [8] -0.019 | [9] 0.032 | [10] -0.017

PCNP (UniProt Q8WW12)
inactive: [1] 0.041 | [2] 0.008 | [3] 0.041 | [4] -0.022 | [5] 0.066 | [6] 0.098 | [7] -0.063 | [8] -0.086 | [9] -0.019 | [10] 0.029

PCMT1 isoform 2 (UniProt P22061)
inactive: [1] 0.018 | [2] 0.008 | [3] -0.003 | [4] -0.045 | [5] -0.024 | [6] 0.002 | [7] -0.045 | [8] -0.025 | [9] -0.025 | [10] 0.073

PDRG1 (UniProt Q9NUG6)
inactive: [1] 0.032 | [2] -0.028 | [3] -0.005 | [4] 0.108 | [5] 0.01 | [6] 0.002 | [7] -0.109 | [8] 0.004 | [9] -0.009 | [10] 0.062

PBXIP1 (UniProt Q96AQ6)
inactive: [1] 0.008 | [2] 0.029 | [3] 0.036 | [4] -0.004 | [5] 0.021 | [6] -0.012 | [7] 0.031 | [8] 0.013 | [9] -0.016 | [10] 0.039

2 consecutive records already listed, quoted:
PCNP (UniProt Q8WW12)
inactive: [1] 0.041 | [2] 0.008 | [3] 0.041 | [4] -0.022 | [5] 0.066 | [6] 0.098 | [7] -0.063 | [8] -0.086 | [9] -0.019 | [10] 0.029

PCMT1 isoform 2 (UniProt P22061)
inactive: [1] 0.018 | [2] 0.008 | [3] -0.003 | [4] -0.045 | [5] -0.024 | [6] 0.002 | [7] -0.045 | [8] -0.025 | [9] -0.025 | [10] 0.073

Next part

PDCD5 (UniProt O14737)
inactive: [1] 0.01 | [2] 0.001 | [3] -0.005 | [4] -0.08 | [5] -0.024 | [6] 0.03 | [7] -0.024 | [8] -0.064 | [9] 0.027 | [10] 0.007

PDIA6 isoform 2 (UniProt Q15084)
inactive: [1] 0.002 | [2] -0.024 | [3] 0.023 | [4] -0.001 | [5] 0.045 | [6] 0.001 | [7] 0.013 | [8] -0.023 | [9] 0.028 | [10] -0.042

PANK2 (UniProt Q9BZ23)
inactive: [1] 0.017 | [2] 0.041 | [3] 0.003 | [4] 0.044 | [5] 0.021 | [6] -0.01 | [7] -0.056 | [8] 0.043 | [9] -0.005 | [10] 0.082

PCSK9 (UniProt Q8NBP7)
inactive: [1] 0.049 | [2] 0.006 | [3] -0.061 | [4] 0.012 | [5] 0.032 | [6] 0.141 | [7] -0.078 | [8] 0.048 | [9] 0.01 | [10] 0.088

PAXIP1 (UniProt Q6ZW49)
inactive: [1] -0.155 | [2] 0.116 | [3] -0.355 | [4] 0.022 | [5] 0.139 | [6] -0.07 | [7] -0.167 | [8] 0.118 | [9] -0.091 | [10] 0.02

PCYOX1L (UniProt Q8NBM8)
inactive: [1] -0.016 | [2] 0.008 | [3] 0.003 | [4] -0.013 | [5] -0.016 | [6] 0.1 | [7] -0.049 | [8] -0.069 | [9] -0.056 | [10] -0.012

PCCA (UniProt P05165)
inactive: [1] 0.144 | [2] -0.028 | [3] -0.075 | [4] -0.025 | [5] -0.079 | [6] -0.036 | [7] 0.076 | [8] 0.047 | [9] -0.04 | [10] 0.048

PAFAH1B1 (UniProt P43034)
inactive: [1] 0.007 | [2] 0.016 | [3] -0.011 | [4] -0.059 | [5] 0.008 | [6] 0.053 | [7] -0.048 | [8] -0.042 | [9] 0.008 | [10] 0.019

PEX12 (UniProt O00623)
inactive: [1] 0.049 | [2] 0.112 | [3] 0.037 | [4] 0.056 | [5] 0.056 | [6] -0.028 | [7] 0.123 | [8] 0.026 | [9] -0.054 | [10] -0.047

PCYT2 isoform 3 (UniProt Q99447)
inactive: [1] 0.02 | [2] -0.004 | [3] 0.032 | [4] 0.026 | [5] -0.004 | [6] 0.126 | [7] -0.05 | [8] -0.033 | [9] 0.017 | [10] 0.021

PCIF1 (UniProt Q9H4Z3)
inactive: [1] 0.013 | [2] -0.077 | [3] -0.192 | [4] 0.066 | [5] -0.025 | [6] -0.032 | [7] 0.049 | [8] -0.102 | [9] -0.086 | [10] 0.019

PAPOLA (UniProt P51003)
inactive: [1] 0.045 | [2] -0.026 | [3] -0.031 | [4] -0.028 | [5] -0.066 | [6] 0.062 | [7] -0.016 | [8] -0.003 | [9] -0.011 | [10] 0.023

PDXK (UniProt O00764)
inactive: [1] 0 | [2] 0.028 | [3] -0.007 | [4] 0.007 | [5] -0.02 | [6] 0.076 | [7] -0.038 | [8] -0.071 | [9] 0.028 | [10] -0.021

PDCL3 (UniProt Q9H2J4)
inactive: [1] 0.008 | [2] -0.03 | [3] 0.002 | [4] -0.04 | [5] -0.005 | [6] 0.049 | [7] -0.028 | [8] -0.016 | [9] 0.008 | [10] -0.024

PCYOX1 (UniProt Q9UHG3)
inactive: [1] -0.017 | [2] 0.066 | [3] -0.019 | [4] -0.044 | [5] -0.002 | [6] 0.123 | [7] -0.041 | [8] -0.044 | [9] 0.015 | [10] 0.003

PDZD8 (UniProt Q8NEN9)
inactive: [1] 0.013 | [2] -0.037 | [3] -0.03 | [4] -0.011 | [5] -0.039 | [6] -0.077 | [7] 0.006 | [8] -0.017 | [9] -0.011 | [10] 0.03

PET100 (UniProt P0DJ07)
inactive: [1] 0.052 | [2] -0.004 | [3] -0.031 | [4] -0.076 | [5] -0.069 | [6] 0.121 | [7] -0.073 | [8] -0.028 | [9] -0.07 | [10] -0.023

PDCL (UniProt Q13371)
inactive: [1] 0 | [2] -0.009 | [3] 0.071 | [4] 0.059 | [5] -0.148 | [6] -0.102 | [7] -0.003 | [8] 0.003 | [9] 0.05 | [10] -0.154

PDAP1 (UniProt Q13442)
inactive: [1] -0.01 | [2] -0.066 | [3] 0.008 | [4] -0.006 | [5] 0.033 | [6] 0.089 | [7] -0.053 | [8] -0.067 | [9] 0.008 | [10] 0.003
